The experiment deals with L1210 leukemia ip in BDF1 mice, survival T/C. Briefly: NCI In Vivo Anticancer Drug Screen. Data for tumor model L1210 Leukemia (intraperitoneal) in B6D2F1 (BDF1) mice. The following applies: higher T/C = longer survival.
Setting [1] is: T/C endpoint: mean survival time, dose: 200.0 mg/kg/injection, schedule: Q01DX009 (ip), vehicle: saline with Tween-80.
Setting [2] is: T/C endpoint: mean survival time, dose: 400.0 mg/kg/injection, schedule: Q01DX009 (ip), vehicle: saline with Tween-80.
The mark [3] stands for this setting: T/C endpoint: mean survival time, dose: 300.0 mg/kg/injection, schedule: Q01DX001 (ip), vehicle: saline.
[4] abbreviates: T/C endpoint: mean survival time, dose: 400.0 mg/kg/injection, schedule: Q01DX001 (ip), vehicle: saline.
[5] abbreviates: T/C endpoint: mean survival time, dose: 75.0 mg/kg/injection, schedule: Q01DX001 (ip), vehicle: saline.
Setting [6] is: T/C endpoint: mean survival time, dose: 150.0 mg/kg/injection, schedule: Q01DX001 (ip), vehicle: saline.
Setting [7] is: T/C endpoint: mean survival time, dose: 400.0 mg/kg/injection, schedule: Q01DX001 (ip), vehicle: carboxymethylcellulose (CMC).
[8] abbreviates: T/C endpoint: mean survival time, dose: 400.0 mg/kg/injection, schedule: Q04DX003 (ip), vehicle: saline with Tween-80.

Molecules are shown by their SMILES. The list does not hold the whole screen: it is rich in T/C values a quarter to a half above the control, in often repeated tests (any T/C) and in doses without a T/C. Other doses and runs of a compound stand elsewhere. T/C is the treated group as % of the vehicle group. Some doses have a count of surviving animals in place of a T/C: the source holds a T/C of zero for them, seemingly a mark for toxic or unscored doses. Some survivor counts are full or nearly so, which does not show that the dose was tolerated: the source hardly ever lists a survival T/C far under the control, and the zero likely stands for such cases as well. Counts of survivors are from the toxicity check (mostly the fifth day) where no day follows; animals may have died later. Schedules are NCI's codes, taken here to give the interval after Q, in days (D) or hours (H), and the number of doses after X. Some schedules carry Z or #; the key to these is not given. For survival time, this PubChem deposit counts one and a half times the control or more as active, and values a quarter to a half above the control carry no call in these data; other NCI protocols may use other cut-offs. Some T/C values carry the count of animals alive at the toxicity check (mostly the fifth day); without a count, all were alive then. Some entries hold several experiments; their values stand side by side, smallest first.

For the compound `Nc1nc([Se])c2ncn(C3CC(O)C(CO)O3)c2n1` (stereo not given), the T/C (T/C endpoint: mean survival time, dose: 12.5 mg/kg/injection, schedule: Q01DX005 (ip), vehicle: saline) was 136 and 147 % of control [5 of 6 alive]. The survivor count (T/C endpoint: mean survival time, dose: 100.0 mg/kg/injection, schedule: Q01DX005 (ip), vehicle: saline) is 6 of 7 and the survivor count (T/C endpoint: mean survival time, dose: 200.0 mg/kg/injection, schedule: Q01DX005 (ip), vehicle: saline) is given as 0 of 7.

Regarding `CC(CCCN(C)Cc1ccccc1)Nc1ccnc2cc(Cl)ccc12` (stereo not given), the survivor count runs as follows: (T/C endpoint: mean survival time, dose: 100.0 mg/kg/injection, schedule: Q01DX009 (ip), vehicle: saline with Tween-80) 2 of 6; under setting [1], 0 of 6; under setting [2], 0 of 6.

Take `CN1CN(c2ccccc2)C2(CCNCC2)C1=O`: the survivor count under setting [3] is given as 0 of 6.

On to `CC(Cl)CN(C)c1ccc2ccccc2c1` (stereo not given), for which the survivor count (T/C endpoint: median survival time, dose: 400.0 mg/kg/injection, schedule: Q01DX009 (ip), vehicle: Klucel (hydroxypropylcellulose) (HPC)) was 0 of 6.

With `C=CCCCCCCCCO`, the survivor count under setting [4] was 0 of 4.

As for `CCOC(=O)Nc1cc2[nH]cnc2c(NC(=O)OCC)n1`, the survivor count reads like this: under setting [5], 6 of 6; under setting [6], 6 of 6; under setting [3], 6 of 6.

Take `Cc1sc2ccc3ccccc3c2[n+]1C`: the survivor count runs as follows: (T/C endpoint: mean survival time, dose: 200.0 mg/kg/injection, schedule: Q04DX003 (ip), vehicle: Klucel (hydroxypropylcellulose) (HPC)) 1 of 6; under setting [3], 1 of 6.

For `CN(C)CCC(O)(Cc1ccccc1)c1ccccc1` (stereo not given), the survivor count by setting is: (T/C endpoint: mean survival time, dose: 200.0 mg/kg/injection, schedule: Q01DX009 (ip), vehicle: Klucel (hydroxypropylcellulose) (HPC)) 0 of 6; (T/C endpoint: mean survival time, dose: 400.0 mg/kg/injection, schedule: Q04DX003 (ip), vehicle: Klucel (hydroxypropylcellulose) (HPC)) 0 of 6.

In the case of `CCCCCCCCCCCCOc1ccc(C(=O)CC(=O)OCC)cc1`, the survivor count (T/C endpoint: mean survival time, dose: 100.0 mg/kg/injection, schedule: Q04DX003 (ip), vehicle: saline) was 6 of 6.

As for `CN(C)CC(O)c1ccc2oc3ccccc3c2c1` (stereo not given), under setting [4], the survivor count was 0 of 3.

For `C/C=C/C[P+](CC)(c1ccccc1)c1ccccc1`, the survivor count runs as follows: (T/C endpoint: mean survival time, dose: 6.25 mg/kg/injection, schedule: Q01DX009 (ip), vehicle: saline) 0 of 3; (T/C endpoint: mean survival time, dose: 12.5 mg/kg/injection, schedule: Q01DX009 (ip), vehicle: saline with Tween-80) 0 of 3; (T/C endpoint: mean survival time, dose: 12.5 mg/kg/injection, schedule: Q01DX009 (ip), vehicle: saline) 0 of 3; (T/C endpoint: mean survival time, dose: 25.0 mg/kg/injection, schedule: Q01DX009 (ip), vehicle: saline with Tween-80) 0 of 3; (T/C endpoint: mean survival time, dose: 50.0 mg/kg/injection, schedule: Q01DX009 (ip), vehicle: saline with Tween-80) 0 of 3; (T/C endpoint: mean survival time, dose: 50.0 mg/kg/injection, schedule: Q01DX009 (ip), vehicle: saline) 0 of 3. Further, the survivor count runs as follows: (T/C endpoint: mean survival time, dose: 100.0 mg/kg/injection, schedule: Q01DX009 (ip), vehicle: saline) 0 of 3; (T/C endpoint: mean survival time, dose: 200.0 mg/kg/injection, schedule: Q01DX009 (ip), vehicle: saline) 0 of 3.

As for `CC1CN=C(c2ccc(NC(=O)NCCCCCCCCCCNC(=O)Nc3ccc(C4=NCC(C)N4)cc3)cc2)N1` (stereo not given), the survivor count (T/C endpoint: mean survival time, dose: 42.0 mg/kg/injection, schedule: Q01DX015 (ip), vehicle: water) is given as 0 of 6.

On to `CCn1c(N)c2c(ncn2Cc2ccccc2)nc1=S`, for which the survivor count reads like this: (T/C endpoint: mean survival time, dose: 100.0 mg/kg/injection, schedule: Q01DX001 (ip), vehicle: acetone) 1 of 6; (T/C endpoint: mean survival time, dose: 200.0 mg/kg/injection, schedule: Q01DX001 (ip), vehicle: acetone) 0 of 6; (T/C endpoint: mean survival time, dose: 400.0 mg/kg/injection, schedule: Q01DX001 (ip), vehicle: acetone) 0 of 6.

For `O=C(O)c1ccncc1C(=O)O`, the survivor count under setting [7] was 4 of 4.

Take `Nc1nc(N)c(N=Nc2ccc(S(=O)(=O)Nc3ccccn3)cc2)c(N)n1`: under setting [4], the survivor count was 4 of 4.

As for `CN(C)N=C(Cc1ccccc1)Cc1ccccc1`, the survivor count is 4 of 6 under setting [1] and 2 of 6 under setting [8].

Consider `CN(CC(=O)O)C(=O)c1ccccc1`, for which, under setting [3], the survivor count was 1 of 6.

As to `C[N+]1(C)CCN(c2ccccc2)CC1`, the survivor count is listed as 0 of 6 (T/C endpoint: mean survival time, dose: 37.5 mg/kg/injection, schedule: Q01DX001 (ip), vehicle: saline); 0 of 6 under setting [5]; 0 of 6 under setting [6]; 0 of 6 under setting [3].

As to `O=C(Nc1ccccc1C(F)(F)F)Oc1ccc(Cl)cc1Cl`, the survivor count under setting [2] was 0 of 6.

As for `CCN(CC)CCOc1cc(C)c2cc(Cc3ccccc3)ccc2n1`, the survivor count (T/C endpoint: mean survival time, dose: 400.0 mg/kg/injection, schedule: Q01DX001 (ip), vehicle: other) is recorded as 0 of 6.

For the compound `O=CN1CCCC1C(=O)O` (stereo not given), the survivor count (T/C endpoint: mean survival time, dose: 400.0 mg/kg/injection, schedule: Q01DX009 (ip), vehicle: water) is on record as 0 of 6.

Regarding `CCOC(=O)CCc1ccc(O)c(O)c1`, for the setting “T/C endpoint: mean survival time, dose: 400.0 mg/kg/injection, schedule: Q01DX009 (ip), vehicle: saline”, the survivor count is 1 of 6.

For the compound `CSc1nn(C)c2cc(C)c3ccccc3[n+]12`, the survivor count (T/C endpoint: mean survival time, dose: 50.0 mg/kg/injection, schedule: Q01DX001 (ip), vehicle: saline) is 2 of 4; the survivor count (T/C endpoint: mean survival time, dose: 80.0 mg/kg/injection, schedule: Q01DX001 (ip), vehicle: saline) is recorded as 0 of 4; the survivor count (T/C endpoint: mean survival time, dose: 100.0 mg/kg/injection, schedule: Q01DX001 (ip), vehicle: saline) is listed as 0 of 4; the survivor count (T/C endpoint: mean survival time, dose: 200.0 mg/kg/injection, schedule: Q01DX001 (ip), vehicle: saline) is on record as 0 of 4; the survivor count under setting [4] is 0 of 4.

Turning to `NC1=NCC(CSS(=O)(=O)O)S1` (stereo not given), the survivor count is on record as 2 of 6 (T/C endpoint: mean survival time, dose: 45.0 mg/kg/injection, schedule: Q01DX009 (ip), vehicle: saline) and 0 of 6 (T/C endpoint: mean survival time, dose: 65.0 mg/kg/injection, schedule: Q01DX009 (ip), vehicle: saline).

On to `CCCCC(CC)(CCN)CCCC`, for which the survivor count reads like this: (T/C endpoint: mean survival time, dose: 40.0 mg/kg/injection, schedule: Q01DX001 (ip), vehicle: carboxymethylcellulose (CMC)) 0 of 4; (T/C endpoint: mean survival time, dose: 50.0 mg/kg/injection, schedule: Q01DX001 (ip), vehicle: carboxymethylcellulose (CMC)) 0 of 4; (T/C endpoint: mean survival time, dose: 80.0 mg/kg/injection, schedule: Q01DX001 (ip), vehicle: carboxymethylcellulose (CMC)) 0 of 4; (T/C endpoint: mean survival time, dose: 100.0 mg/kg/injection, schedule: Q01DX001 (ip), vehicle: carboxymethylcellulose (CMC)) 0 of 4; (T/C endpoint: mean survival time, dose: 200.0 mg/kg/injection, schedule: Q01DX001 (ip), vehicle: carboxymethylcellulose (CMC)) 0 of 4; under setting [7], 0 of 4.

As for `C=CCC(C#N)(CCN(C)C)c1cccc2ccccc12` (stereo not given), for the setting “T/C endpoint: mean survival time, dose: 400.0 mg/kg/injection, schedule: Q01DX009 (ip), vehicle: Klucel (hydroxypropylcellulose) (HPC)”, the survivor count is listed as 0 of 6.

For `O=[N+]([O-])C=C([SH2+])[SH2+].O=[N+]([O-])C=C([SH2+])[SH2+].[Co+3].c1ccc(C[P+](c2ccccc2)(c2ccccc2)c2ccccc2)cc1`, the survivor count (T/C endpoint: mean survival time, dose: 300.0 mg/kg/injection, schedule: Q04DX003 (ip), vehicle: saline) is 1 of 6.

Turning to `C/C=C(\C)C(=O)O`, the survivor count by setting is: (T/C endpoint: mean survival time, dose: 333.0 mg/kg/injection, schedule: Q01DX Z (ip), vehicle: saline) 0 of 6; (T/C endpoint: mean survival time, dose: 500.0 mg/kg/injection, schedule: Q01DX Z (ip), vehicle: saline) 0 of 6.

On to `CC(=O)Nc1ccc(/C=N/N=C(N)N)cc1`, for which the survivor count runs as follows: (T/C endpoint: mean survival time, dose: 250.0 mg/kg/injection, schedule: Q01DX Z (ip), vehicle: carboxymethylcellulose (CMC)) 3 of 6; (T/C endpoint: mean survival time, dose: 500.0 mg/kg/injection, schedule: Q01DX Z (ip), vehicle: carboxymethylcellulose (CMC)) 1 of 6.

Regarding `OC(CN1CCCCC1)c1cccs1` (stereo not given), the survivor count reads like this: (T/C endpoint: mean survival time, dose: 100.0 mg/kg/injection, schedule: Q04DX003 (ip), vehicle: saline with Tween-80) 6 of 6; (T/C endpoint: mean survival time, dose: 200.0 mg/kg/injection, schedule: Q04DX003 (ip), vehicle: saline with Tween-80) 3 of 6; under setting [8], 0 of 6.
